Experimental data: PubChem BioAssay AID1508600 (Functional Genomics Laboratory (NCATS/FGL), 2020)
Among all 53,000 sequences or so, about 3,700 (7%) were called active.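 Rule for the calls: active = gene knockdowns whose robust z-score for IL-1 alpha signal is at least 2 or at most -2, so actives lie on both sides; inactive = the rest.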 The list shows a part of the results.

Assay: Components of the Cytosolic LPS Sensing Pathway: Gene Identification via Genome-wide siRNA Screen;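 note: robust z of the log signal after scaling to non-targeting control siRNA wells of the plate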
Conditions: RAW264.7 macrophages, IL-1a HTRF, actives lie on both sides, screened at 100 nM (by protocol), cells primed 5 h with Pam3CSK4 first
Summary of the method: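 Three distinct siRNAs per gene were tested singly at 100 nM in RAW264.7 macrophages. Following Pam3CSK4 priming and 24 hour LipidA transfection, IL-1a secretion was read by HTRF.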

Sequence	z-score
CCUUUUGAUGUUGUGACUUTT against Crebl2	inactive: 0.116
GGAGCUGAUAAGAAAACUATT against Gbp2	inactive: 0.486
GGUGAUUCAGAUAAAAGAGTT against Mbtps1	inactive: 0.265
GGCCCUGUUGCUAUGUGUUTT against Map1s	active: 2.06
GGCUCAAAGACUGAAUCCCTT against Recql4	inactive: 0.309
GGUCAUUUCAAGUGCUAAGTT against Adgra1	active: 2.76
GCUGUUUCAGGUAUCUGUCTT against Tcam1	inactive: 0.00576
GGUAUUAGCGGAUUGUUACTT against Spg7	inactive: -0.378
GGCCUUAGAUGGGAAAUUGTT against Pttg1	inactive: -0.386
GGAAGAAGUACCCAUGCAATT against Olfr65	inactive: -0.491
CUGUAUGAAGAACUGGAGCTT against Cracr2b	inactive: 0.659
GCACCAAUCAAUGAGGAGATT against Was	inactive: -0.785
GGCUGAUGAUACUUAAACATT against Vmn1r83	inactive: -1.26
GGUUAGAGUGCCUUUCCUUTT against Ctxn1	inactive: -0.226
GGCACACUCACUCCUUUGATT against Mis18bp1	inactive: 0.145
GGGUUUCUGAGGUUUAAUUTT against Arhgef3	inactive: 0.0908
CCAGAGCUUAUUGAGAUGCTT against Myh4	inactive: -0.475
CCUAUGAUUACUUGAACCCTT against Bak1	inactive: 0.803
GGUUUCGAUAGGAAUAUGATT against Pkp1	inactive: -0.791
GGGUUUUAAGUUUACUGCUTT against Nupr1l	inactive: 1.27
CGGCCAUAUAAUUUUGAAUTT against Tbx20	inactive: 0.233
CCUCUCCAUCUUUGACUUATT against Olfr961	inactive: -0.655
GGCUUCCAUUACCAUGAUGTT against Olfr381	inactive: -0.318

An excerpt from further up, for reference:
Sequence	z-score
GGGUUUUAAGUUUACUGCUTT against Nupr1l	inactive: 1.27
CGGCCAUAUAAUUUUGAAUTT against Tbx20	inactive: 0.233
CCUCUCCAUCUUUGACUUATT against Olfr961	inactive: -0.655

(continued)

Sequence	z-score
CCAGUUCCUUUGUAGGCAATT against Ctf1	inactive: 0.171
CCUAUGAAUGAUUUUGGUGTT against Pcdhb7	inactive: -0.0606
GCAAGACUAAGACUAUCUCTT against Olfr1340	inactive: 0.221
GGCACUCAGUUCUUACCAGTT against Paxx	inactive: -1.09
GCCUAGUGAAUACAUCACUTT against Cyp4f18	inactive: 0.394
GGGACUUAAUUUAUAGGGATT against Tagln2	inactive: 0.84
GGAGUCCAAAUUCUUGGGUTT against Ik	inactive: 0.961
UAUGGGCCCUUGUCCUCUGTT against Ffar1	inactive: -1.28
GGAAGAUACCAAAAUCUUATT against Got1l1	inactive: 1.27
GGGUUCUCUUGCCUACACATT against Ltv1	inactive: 0.294
CCUUAAUUUCGACAUGACUTT against Zfand5	inactive: -0.32
GGUUCAUUGUCUGAGAUCATT against Thumpd3	inactive: 0.998
GGAGACAUUGCUAUAUAUGTT against Hmgcs1	inactive: -0.207
CGUAAUUGUUCCAUGUAGUTT against Fam72a	inactive: 0.917
GGUGCUAGAUGAGCUGACCTT against Krt16	inactive: -0.123
GGAUUGUAAUAAUGGAGCCTT against H2-M10.4	active: 2.94
GUCCGUCUCGGAGAAAUGUTT against Ccdc106	active: -2.28
GGGACAGAACUUAAAUGUATT against Mup4	inactive: -0.24
GCAUCUAUCGGAUUCUUAUTT against Ddx49	inactive: -0.856
GAAAAAGGGUGACAAGACUTT against Nppc	inactive: 0.276
CCGUCAUGACUUUGUUCUATT against Plcg1	inactive: -0.205
GGCAAGAAGUGUGAUGAACTT against Kansl3	active: -2.81
CGGUUAAAAGCCCUCAGCATT against Olfr592	inactive: -1.41

Sequence	z-score
CCUCGUGUUACUUUUACCCTT against Olfr13	inactive: -1.51
GGAUAUCCACAGAAAUCAATT against Dram1	inactive: -0.496
GGAUUGCCCUGUUGUGGUGTT against Snx17	inactive: -0.227
GGAUGUAGAUGUUGGUUUUTT against Kcnj14	active: 2.52
GGGAACAGAAAUUAAAGGATT against Fanca	inactive: 0.0745
CCAGUUCACCAUAUGCUGCTT against Tdpoz3	inactive: 1.08
GUCCUGAAGAAGCUCAAGATT against Cartpt	inactive: -0.513
CGGAGGAGAAAUCUUGUAATT against Zfp273	inactive: -1.42
GCAUGUCCAAAGUGGUACCTT against Tecrl	inactive: 0.81
GCUUAGUCUUAUGUAGCUCTT against Vmac	inactive: -0.00402
GCUUGGAAGACUGUAAACUTT against Lpcat2b	inactive: 1.02
GGUCCUCAAAUGAAAAAGATT against Vps37d	inactive: -0.347
CAUUGGAAAGAAUGGCCUUTT against Olfr890	inactive: -0.231
CCCUAAGUUACCUCUUUCGTT against Ndufs8	inactive: 0.017
GGCUGAGAUCUGAAAUUGATT against Krt5	inactive: 0.592
CGAUACUGUGCAAAGAAUCTT against Nepro	inactive: 0.231
GGAACUCAGGGAAUAUAUUTT against Mtnr1a	inactive: -0.356
CCCAAUUAAUGAUCACCCATT against Tlcd2	active: -3.04
GGCUAAUGUAGUAAACCACTT against Olfr965	inactive: 0.1
GGAGAGCUGGUGUUUUAGATT against Tnfrsf17	active: 2.74
CCCUCAAAGACCUGUACAUTT against Gm266	active: 2.78
GGAAUGUGCCUAAGUUUGGTT against Ufc1	inactive: 1.08
